# Source: patent US20250066503A1, “CELL INJURY INDUCING THERAPEUTIC DRUG FOR USE IN CANCER THERAPY” (CHUGAI SEIYAKU KABUSHIKI KAISHA, priority 2016, published 2025)
# System: extracellular matrix (BD Matrigel)
# Assay: Assessment of the ECM-binding ability (ECL on BD Matrigel)
# Conditions: fluorescence intensity relative to standard antibody MRAH-G1d/MRAL-k0
row,Molecule,ECM binding ratio (standard = 1)
1,antibody-16: optimized anti-human CD3ε chain and anti-human GPC3 bispecific antibody (antibody) heavy 1: QVQLVESGGGLVQPGRSLRLSCAASGFTFSNAWMHWVRQAPGKGLEWVAQIKDKSQNYATYYAESVKGRFTISRADSKNSIYLQMNSLKTEDTAVYYCRYVHYSASYGVDAWGQGTTVTVSSASTKGPSVFPLAPCSRSTSESTAALGCLVKDYFPEPVTVSWNSGALTSGVHTFPAVLQSSGLYSLSSVVTVPSSSLGTKTYTCNVDHKPSNTKVDKRVESKYGPPCPPCPAPEFRGGPKVFLFPPKPKDTLMISRTPEVTCVVVDVSQEDPEVQFNWYVDGVEVHNAKTKPREEQFASTYRVVSVLTVLHQDWLNGKEYKCKVSNKGLPSSIEKTISKAKGQPREPQVYTLPPSQKEMTKNQVSLTCLVKGFYPSDIAVEWESNGQPENNYKTTPPVLDSDGSFFLYSKLTVDKSRWQEGNVFSCSVMHEALHNRYTQKSLSLSP heavy 2: QVQLVQSGAEVKKPGASVKVSCKASGYTFTDYEMHWIRQPPGQGLEWIGAIDGKTPDTAYSQKFKGRVTLTADKSTSTAYMELSSLTSEDTAVYYCTRFYSYTYWGQGTLVTVSSASTKGPSVFPLAPCSRSTSESTAALGCLVKDYFPEPVTVSWNSGALTSGVHTFPAVLQSSGLYSLSSVVTVPSSSLGTQTYTCNVDHKPSNTKVDKRVESKYGPPCPPCPAPEFRGGPKVFLFPPKPKDTLMISRTPEVTCVVVDVSQEDPEVQFNWYVDGVEVHNAKTKPREEQFASTYRVVSVLTVLHQDWLNGKEYKCKVSNKGLPSSIEKTISKAKGQPREPQVYTLPPSQEEMTKNQVSLTCLVKGFYPSDIAVEWESNGQPENNYKTTPPVLDSDGSFFLYSKLTVDKSRWQEGNVFSCSVMHEALHNHYTQESLSLSP light: DIVMTQSPLSLPVTPGEPASISCRSSQSPVHSNRNTYLHWYQQKPGQAPRLLIYKVSNRFRGVPDRFSGSGSGTDFTLKISRVEAEDVGVYYCGQGTQVPYTFGQGTKLEIKRTVAAPSVFIFPPSDEQLKSGTASVVCLLNNFYPREAKVQWKVDNALQSGNSQESVTEQDSKDSTYSLSSTLTLSKADYEKHKVYACEVTHQGLSSPVTKSFNRGEC,4.4
2,antibody-26: optimized anti-human CD3ε chain and anti-human GPC3 bispecific antibody (antibody) heavy 1: QVQLVESGGGLVQPGRSLRLSCAASGFTFSNAWMHWVRQAPGKGLEWVAQIKDKSQNYATYYAESVKGRFTISRDDSKNSLYLQMNSLKTEDTAVYYCRYVHYAASYGVDAWGQGTTVTVSSASTKGPSVFPLAPCSRSTSESTAALGCLVKDYFPEPVTVSWNSGALTSGVHTFPAVLQSSGLYSLSSVVTVPSSSLGTKTYTCNVDHKPSNTKVDKRVESKYGPPCPPCPAPEFRGGPKVFLFPPKPKDTLMISRTPEVTCVVVDVSQEDPEVQFNWYVDGVEVHNAKTKPREEQFASTYRVVSVLTVLHQDWLNGKEYKCKVSNKGLPSSIEKTISKAKGQPREPQVYTLPPSQKEMTKNQVSLTCLVKGFYPSDIAVEWESNGQPENNYKTTPPVLDSDGSFFLYSKLTVDKSRWQEGNVFSCSVMHEALHNRYTQKSLSLSP heavy 2: QVQLVQSGAEVKKPGASVTVSCKASGYTFTDYEMHWIRQPPGEGLEWIGAIDGETPDTAYSEKFKGRVTLTADKSTSTAYMELSSLTSEDTAVYYCTRFYSYTYWGQGTLVTVSSASTKGPSVFPLAPCSRSTSESTAALGCLVKDYFPEPVTVSWNSGALTSGVHTFPAVLQSSGLYSLSSVVTVPSSSLGTQTYTCNVDHKPSNTKVDKRVESKYGPPCPPCPAPEFRGGPKVFLFPPKPKDTLMISRTPEVTCVVVDVSQEDPEVQFNWYVDGVEVHNAKTKPREEQFASTYRVVSVLTVLHQDWLNGKEYKCKVSNKGLPSSIEKTISKAKGQPREPQVYTLPPSQEEMTKNQVSLTCLVKGFYPSDIAVEWESNGQPENNYKTTPPVLDSDGSFFLYSKLTVDKSRWQEGNVFSCSVMHEALHNHYTQESLSLSP light: DIVMTQSPLSLPVTPGEPASISCRPSQSPVHSNRNTYLHWYQQKPGQAPRLLIYKVSNRFSGVPDRFSGSGSGTDFTLKISRVEAEDVGVYYCYQGTQVPYTFGQGTKLEIKRTVAAPSVFIFPPSDEQLKSGTASVVCLLNNFYPREAKVQWKVDNALQSGNSQESVTEQDSKDSTYSLSSTLTLSKADYEKHKVYACEVTHQGLSSPVTKSFNRGEC,3.3
3,antibody-37: optimized anti-human CD3ε chain and anti-human GPC3 bispecific antibody (antibody) heavy 1: QVQLVESGGGVVQPGGSLRLSCAASGFTFSNAWMHWVRQAPGKGLEWVAQIKDKSQNYATYVAESVKGRFTISRADSKNSIYLQMNSLKTEDTAVYYCRYVHYAAGYGVDIWGQGTTVTVSSASTKGPSVFPLAPCSRSTSESTAALGCLVKDYFPEPVTVSWNSGALTSGVHTFPAVLQSSGLYSLSSVVTVPSSSLGTKTYTCNVDHKPSNTKVDKRVESKYGPPCPPCPAPEFRGGPKVFLFPPKPKDTLMISRTPEVTCVVVDVSQEDPEVQFNWYVDGVEVHNAKTKPREEQFASTYRVVSVLTVLHQDWLNGKEYKCKVSNKGLPSSIEKTISKAKGQPREPQVYTLPPSQKEMTKNQVSLTCLVKGFYPSDIAVEWESNGQPENNYKTTPPVLDSDGSFFLYSKLTVDKSRWQEGNVFSCSVMHEALHNRYTQKSLSLSP heavy 2: QVQLVQSGAEVKKPGASVTVSCKASGYTFTDYEMHWIRQPPGEGLEWIGAIDGPTPDTAYSEKFKGRVTLTADKSTSTAYMELSSLTSEDTAVYYCTRFYSYTYWGQGTLVTVSSASTKGPSVFPLAPCSRSTSESTAALGCLVKDYFPEPVTVSWNSGALTSGVHTFPAVLQSSGLYSLSSVVTVPSSSLGTQTYTCNVDHKPSNTKVDKRVESKYGPPCPPCPAPEFRGGPKVFLFPPKPKDTLMISRTPEVTCVVVDVSQEDPEVQFNWYVDGVEVHNAKTKPREEQFASTYRVVSVLTVLHQDWLNGKEYKCKVSNKGLPSSIEKTISKAKGQPREPQVYTLPPSQEEMTKNQVSLTCLVKGFYPSDIAVEWESNGQPENNYKTTPPVLDSDGSFFLYSKLTVDKSRWQEGNVFSCSVMHEALHNHYTQESLSLSP light: DIVMTQSPLSLPVTPGEPASISCRSSQPLVHSNRNTYLHWYQQKPGQAPRLLIYKVSNRFSGVPDRFSGSGSGTDFTLKISRVEAEDVGVYYCGQGTQVPYTFGQGTKLEIKRTVAAPSVFIFPPSDEQLKSGTASVVCLLNNFYPREAKVQWKVDNALQSGNSQESVTEQDSKDSTYSLSSTLTLSKADYEKHKVYACEVTHQGLSSPVTKSFNRGEC,2.5
4,antibody-33: optimized anti-human CD3ε chain and anti-human GPC3 bispecific antibody (antibody) heavy 1: QVQLVESGGGLVQPGRSLRLSCAASGFTFSNAWMHWVRQAPGKGLEWVAQIKDKSQNYATYYAESVKGRFTISRDDSKNSLYLQMNSLKTEDTAVYYCRYVHYAAGYGVDAWGQGTTVTVSSASTKGPSVFPLAPCSRSTSESTAALGCLVKDYFPEPVTVSWNSGALTSGVHTFPAVLQSSGLYSLSSVVTVPSSSLGTKTYTCNVDHKPSNTKVDKRVESKYGPPCPPCPAPEFRGGPKVFLFPPKPKDTLMISRTPEVTCVVVDVSQEDPEVQFNWYVDGVEVHNAKTKPREEQFASTYRVVSVLTVLHQDWLNGKEYKCKVSNKGLPSSIEKTISKAKGQPREPQVYTLPPSQKEMTKNQVSLTCLVKGFYPSDIAVEWESNGQPENNYKTTPPVLDSDGSFFLYSKLTVDKSRWQEGNVFSCSVMHEALHNRYTQKSLSLSP heavy 2: QVQLVQSGAEVKKPGASVTVSCKASGYTFTDYEMHWIRQPPGEGLEWIGAIDGPTPDTAYSEKFKGRVTLTADKSTSTAYMELSSLTSEDTAVYYCTRFYSYTYWGQGTLVTVSSASTKGPSVFPLAPCSRSTSESTAALGCLVKDYFPEPVTVSWNSGALTSGVHTFPAVLQSSGLYSLSSVVTVPSSSLGTQTYTCNVDHKPSNTKVDKRVESKYGPPCPPCPAPEFRGGPKVFLFPPKPKDTLMISRTPEVTCVVVDVSQEDPEVQFNWYVDGVEVHNAKTKPREEQFASTYRVVSVLTVLHQDWLNGKEYKCKVSNKGLPSSIEKTISKAKGQPREPQVYTLPPSQEEMTKNQVSLTCLVKGFYPSDIAVEWESNGQPENNYKTTPPVLDSDGSFFLYSKLTVDKSRWQEGNVFSCSVMHEALHNHYTQESLSLSP light: DIVMTQSPLSLPVTPGEPASISCRSSQPLVHSNRNTYLHWYQQKPGQAPRLLIYKVSNRFSGVPDRFSGSGSGTDFTLKISRVEAEDVGVYYCGQGTQVPYTFGQGTKLEIKRTVAAPSVFIFPPSDEQLKSGTASVVCLLNNFYPREAKVQWKVDNALQSGNSQESVTEQDSKDSTYSLSSTLTLSKADYEKHKVYACEVTHQGLSSPVTKSFNRGEC,1.7
5,antibody-36: optimized anti-human CD3ε chain and anti-human GPC3 bispecific antibody (antibody) heavy 1: QVQLVESGGGVVQPGGSLRLSCAASGFTFSNAWMHWVRQAPGKGLEWVAQIKDKSQNYATYVAESVKGRFTISRADSKNSIYLQMNSLKTEDTAVYYCRYVHYAAGYGVDIWGQGTTVTVSSASTKGPSVFPLAPCSRSTSESTAALGCLVKDYFPEPVTVSWNSGALTSGVHTFPAVLQSSGLYSLSSVVTVPSSSLGTKTYTCNVDHKPSNTKVDKRVESKYGPPCPPCPAPEFRGGPKVFLFPPKPKDTLMISRTPEVTCVVVDVSQEDPEVQFNWYVDGVEVHNAKTKPREEQFASTYRVVSVLTVLHQDWLNGKEYKCKVSNKGLPSSIEKTISKAKGQPREPQVYTLPPSQKEMTKNQVSLTCLVKGFYPSDIAVEWESNGQPENNYKTTPPVLDSDGSFFLYSKLTVDKSRWQEGNVFSCSVMHEALHNRYTQKSLSLSP heavy 2: QVQLVQSGAEVKKPGASVTVSCKASGYTFTDYEMHWVRQAPGEGLEWMGAIDGETPDTAYSEKFKGRVTLTADKSTSTAYMELSSLTSEDTAVYYCTRFYSYTYWGQGTLVTVSSASTKGPSVFPLAPCSRSTSESTAALGCLVKDYFPEPVTVSWNSGALTSGVHTFPAVLQSSGLYSLSSVVTVPSSSLGTQTYTCNVDHKPSNTKVDKRVESKYGPPCPPCPAPEFRGGPKVFLFPPKPKDTLMISRTPEVTCVVVDVSQEDPEVQFNWYVDGVEVHNAKTKPREEQFASTYRVVSVLTVLHQDWLNGKEYKCKVSNKGLPSSIEKTISKAKGQPREPQVYTLPPSQEEMTKNQVSLTCLVKGFYPSDIAVEWESNGQPENNYKTTPPVLDSDGSFFLYSKLTVDKSRWQEGNVFSCSVMHEALHNHYTQESLSLSP light: DIVMTQSPLSLPVTPGEPASISCRSSQPLVHSNRNTYLHWYQQKPGQAPRLLIYKVSNRFSGVPDRFSGSGSGTDFTLKISRVEAEDVGVYYCGQGTQVPYTFGQGTKLEIKRTVAAPSVFIFPPSDEQLKSGTASVVCLLNNFYPREAKVQWKVDNALQSGNSQESVTEQDSKDSTYSLSSTLTLSKADYEKHKVYACEVTHQGLSSPVTKSFNRGEC,1.6
